Test results from patent US20050272099A1.
No constants are given. Whether binding was seen depends on the method and setting. Binding seen in cells or lysates may run through a third protein. Some binding calls cover weakened binding; strength is not graded here.

Chains of the proteins cited; added tags and fusions are not shown. Lines headed by an entry give the natural chain unless they say otherwise; changes in a name come on top.
UniProt P10275: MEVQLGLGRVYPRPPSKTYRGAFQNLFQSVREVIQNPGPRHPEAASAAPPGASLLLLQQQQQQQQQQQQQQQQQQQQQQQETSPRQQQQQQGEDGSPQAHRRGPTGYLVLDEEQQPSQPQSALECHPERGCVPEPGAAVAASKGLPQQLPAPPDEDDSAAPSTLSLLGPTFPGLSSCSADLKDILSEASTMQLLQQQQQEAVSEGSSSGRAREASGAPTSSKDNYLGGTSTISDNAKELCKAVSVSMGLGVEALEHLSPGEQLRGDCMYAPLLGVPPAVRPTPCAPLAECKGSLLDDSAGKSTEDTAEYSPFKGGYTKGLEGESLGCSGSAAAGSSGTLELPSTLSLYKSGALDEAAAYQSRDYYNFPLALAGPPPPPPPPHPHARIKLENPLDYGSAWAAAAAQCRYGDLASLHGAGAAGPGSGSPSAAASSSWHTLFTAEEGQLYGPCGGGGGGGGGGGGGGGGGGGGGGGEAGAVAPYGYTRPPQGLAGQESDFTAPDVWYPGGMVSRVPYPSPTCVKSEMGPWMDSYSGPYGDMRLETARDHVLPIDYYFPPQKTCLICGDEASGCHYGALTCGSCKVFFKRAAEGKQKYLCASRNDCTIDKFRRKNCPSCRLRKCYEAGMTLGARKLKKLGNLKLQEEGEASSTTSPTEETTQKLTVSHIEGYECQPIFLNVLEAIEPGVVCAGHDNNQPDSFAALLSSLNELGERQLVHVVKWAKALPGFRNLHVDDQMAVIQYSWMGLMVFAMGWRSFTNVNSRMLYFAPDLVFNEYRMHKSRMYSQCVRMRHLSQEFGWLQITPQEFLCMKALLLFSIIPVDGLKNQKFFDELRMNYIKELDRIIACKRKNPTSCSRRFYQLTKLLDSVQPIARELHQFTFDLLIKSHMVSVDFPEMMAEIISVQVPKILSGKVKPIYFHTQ
UniProt Q58WW2: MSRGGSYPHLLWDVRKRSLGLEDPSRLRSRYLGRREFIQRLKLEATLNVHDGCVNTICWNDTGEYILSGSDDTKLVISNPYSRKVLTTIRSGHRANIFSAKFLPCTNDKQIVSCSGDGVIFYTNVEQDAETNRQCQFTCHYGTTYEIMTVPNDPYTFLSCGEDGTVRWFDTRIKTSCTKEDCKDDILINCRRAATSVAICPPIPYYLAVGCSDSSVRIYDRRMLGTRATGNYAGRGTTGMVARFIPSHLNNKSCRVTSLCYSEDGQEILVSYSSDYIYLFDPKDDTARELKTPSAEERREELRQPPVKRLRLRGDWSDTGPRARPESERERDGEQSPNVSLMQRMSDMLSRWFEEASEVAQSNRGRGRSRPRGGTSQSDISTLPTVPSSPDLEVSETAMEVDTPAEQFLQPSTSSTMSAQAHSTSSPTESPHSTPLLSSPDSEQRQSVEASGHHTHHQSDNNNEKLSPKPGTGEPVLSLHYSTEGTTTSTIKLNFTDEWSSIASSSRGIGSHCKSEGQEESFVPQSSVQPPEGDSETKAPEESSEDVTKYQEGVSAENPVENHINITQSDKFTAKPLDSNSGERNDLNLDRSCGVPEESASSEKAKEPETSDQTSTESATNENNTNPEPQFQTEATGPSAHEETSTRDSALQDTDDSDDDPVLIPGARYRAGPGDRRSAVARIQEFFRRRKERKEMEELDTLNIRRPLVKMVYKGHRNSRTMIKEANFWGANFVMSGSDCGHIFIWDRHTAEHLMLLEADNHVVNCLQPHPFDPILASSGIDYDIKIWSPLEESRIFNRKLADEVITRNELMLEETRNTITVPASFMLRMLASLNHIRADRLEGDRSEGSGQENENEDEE

Molecular target: androgen receptor (UniProt P10275)
Assay: reciprocal co-immunoprecipitation from transfected COS7 cell lysate (AR, HA or Xpress antibody), 35S label, autoradiography

binding: binds
Substance: ARCAP-HA or ARCAP-Xpress epitope fusion protein (from UniProt Q58WW2 1-860)
